{"source": "PubChem BioAssay AID1259424 (University of Nebraska Medical Center, 2018)", "purpose": "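Rank knockdowns across the genome by resemblance to the KSR1 depletion profile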 (primary screen)", "cell system": "human HCT116 colon cancer cells", "knock-down reagent": "siRNA pool against human genes, 50 nM", "measurement": "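Six signature mRNAs by branched-DNA multiplex assay, scaled to two housekeeping genes and non-targeting median, log2; matched to mean KSR1 knockdown profile by Pearson correlation and euclidean distance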", "scale": "mean correlation with KSR1 profile: higher = expression change more like KSR1 knockdown", "note": "The deposit covers about 14,000 reagents; this is a part drawn at random. 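Higher correlation or smaller distance means closer resemblance to KSR1 loss; control wells, including KSR1 knockdowns, recur on many plates.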 Further read-outs or replicates are left out here. Not stated in the record: the time to read-out."}
{"gene symbol": "CD79A (CD79a molecule)", "PubChem SID": "SID363993002", "mean correlation with KSR1 profile": -0.322}
{"gene symbol": "CPN2 (carboxypeptidase N subunit 2)", "PubChem SID": "SID364005631", "mean correlation with KSR1 profile": 0.408}
{"gene symbol": "CHCHD6 (coiled-coil-helix-coiled-coil-helix domain containing 6)", "PubChem SID": "SID364003927", "mean correlation with KSR1 profile": 0.321}
{"gene symbol": "POU3F2 (POU class 3 homeobox 2)", "PubChem SID": "SID363996499", "mean correlation with KSR1 profile": 0.635}
{"gene symbol": "SLC22A11", "PubChem SID": "SID364001110", "mean correlation with KSR1 profile": -0.774}
{"gene symbol": "CD302 (CD302 molecule)", "PubChem SID": "SID363999167", "mean correlation with KSR1 profile": 0.0488}
{"gene symbol": "ME1 (malic enzyme 1)", "PubChem SID": "SID363993575", "mean correlation with KSR1 profile": 0.554}
{"gene symbol": "FGF5 (fibroblast growth factor 5)", "PubChem SID": "SID363995446", "mean correlation with KSR1 profile": -0.184}
{"gene symbol": "HSPA9 (heat shock protein family A (Hsp70) member 9)", "PubChem SID": "SID363995144", "mean correlation with KSR1 profile": 0.828}
{"gene symbol": "CHRNB2 (cholinergic receptor nicotinic beta 2 subunit)", "PubChem SID": "SID363992043", "mean correlation with KSR1 profile": -0.657}
{"gene symbol": "QRFPR (pyroglutamylated RFamide peptide receptor)", "PubChem SID": "SID364004980", "mean correlation with KSR1 profile": 0.439}
{"gene symbol": "MMP7 (matrix metallopeptidase 7)", "PubChem SID": "SID363993601", "mean correlation with KSR1 profile": 0.554}
{"gene symbol": "LINC00474 (long independently transcribed non-coding RNA 474)", "PubChem SID": "SID364002093", "mean correlation with KSR1 profile": -0.434}
{"gene symbol": "TEP1 (telomerase associated protein 1)", "PubChem SID": "SID363997826", "mean correlation with KSR1 profile": 0.184}

Records above whose target name begins with M or m (2):
{"gene symbol": "ME1 (malic enzyme 1)", "PubChem SID": "SID363993575", "mean correlation with KSR1 profile": 0.554}
{"gene symbol": "MMP7 (matrix metallopeptidase 7)", "PubChem SID": "SID363993601", "mean correlation with KSR1 profile": 0.554}

The listing continues:
{"gene symbol": "HOXB9 (homeobox B9)", "PubChem SID": "SID364002681", "mean correlation with KSR1 profile": -0.246}
{"gene symbol": "GPM6B (glycoprotein M6B)", "PubChem SID": "SID363996198", "mean correlation with KSR1 profile": 0.424}
{"gene symbol": "PAK5 (p21 (RAC1) activated kinase 5)", "PubChem SID": "SID364001613", "mean correlation with KSR1 profile": 0.694}
{"gene symbol": "TBC1D4 (TBC1 domain family member 4)", "PubChem SID": "SID364005516", "mean correlation with KSR1 profile": -0.132}
{"gene symbol": "RELT (RELT TNF receptor)", "PubChem SID": "SID364004244", "mean correlation with KSR1 profile": -0.617}
{"gene symbol": "EIF4A2 (eukaryotic translation initiation factor 4A2)", "PubChem SID": "SID363993179", "mean correlation with KSR1 profile": -0.688}
{"gene symbol": "GID8 (GID complex subunit 8 homolog)", "PubChem SID": "SID364000621", "mean correlation with KSR1 profile": -0.186}
{"gene symbol": "NFKB1 (nuclear factor kappa B subunit 1)", "PubChem SID": "SID363995040", "mean correlation with KSR1 profile": 0.186}
{"gene symbol": "FMO4 (flavin containing dimethylaniline monoxygenase 4)", "PubChem SID": "SID363993232", "mean correlation with KSR1 profile": -0.0261}
{"gene symbol": "LY6D (lymphocyte antigen 6 family member D)", "PubChem SID": "SID363994769", "mean correlation with KSR1 profile": -0.314}
{"gene symbol": "ZCCHC17 (zinc finger CCHC-type containing 17)", "PubChem SID": "SID364000155", "mean correlation with KSR1 profile": -0.574}
{"gene symbol": "LHX2 (LIM homeobox 2)", "PubChem SID": "SID363995745", "mean correlation with KSR1 profile": -0.0206}
{"gene symbol": "SUMF2 (sulfatase modifying factor 2)", "PubChem SID": "SID363999474", "mean correlation with KSR1 profile": 0.561}
{"gene symbol": "SH3BP2 (SH3 domain binding protein 2)", "PubChem SID": "SID363994172", "mean correlation with KSR1 profile": -0.195}
{"gene symbol": "FBXW5 (F-box and WD repeat domain containing 5)", "PubChem SID": "SID364004909", "mean correlation with KSR1 profile": -0.409}
{"gene symbol": "IGFBP1 (insulin like growth factor binding protein 1)", "PubChem SID": "SID363991914", "mean correlation with KSR1 profile": 0.69}
{"gene symbol": "NUDCD1 (NudC domain containing 1)", "PubChem SID": "SID364004242", "mean correlation with KSR1 profile": 0.694}
{"gene symbol": "CLEC3A (C-type lectin domain family 3 member A)", "PubChem SID": "SID363996636", "mean correlation with KSR1 profile": 0.256}
{"gene symbol": "EEF1AKMT3 (EEF1A lysine methyltransferase 3)", "PubChem SID": "SID363999491", "mean correlation with KSR1 profile": -0.521}
{"gene symbol": "IPO7 (importin 7)", "PubChem SID": "SID363997203", "mean correlation with KSR1 profile": -0.491}
{"gene symbol": "GH1 (growth hormone 1)", "PubChem SID": "SID363991838", "mean correlation with KSR1 profile": -0.572}
{"gene symbol": "PRELID3B (PRELI domain containing 3B)", "PubChem SID": "SID363999821", "mean correlation with KSR1 profile": 0.263}
